The record followed here is PubChem BioAssay (NCATS).

Protein sequences, listed by entry. Tags and fused reporters are not part of them. Lines headed by an entry give the natural chain unless they say otherwise; changes in a name come on top.
UniProt P21964: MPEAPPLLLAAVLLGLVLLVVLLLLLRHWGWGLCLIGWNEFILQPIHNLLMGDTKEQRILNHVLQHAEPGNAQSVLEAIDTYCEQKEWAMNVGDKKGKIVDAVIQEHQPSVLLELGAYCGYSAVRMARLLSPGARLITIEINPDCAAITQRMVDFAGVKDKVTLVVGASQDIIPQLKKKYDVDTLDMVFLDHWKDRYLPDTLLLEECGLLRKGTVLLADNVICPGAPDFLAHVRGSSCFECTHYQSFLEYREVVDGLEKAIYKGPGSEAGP

Values joined by “and” are separate entries in the source; they are usually repeats but may differ in a detail not shown here. Equal values may be shown once. This is one part of the list. The main result of the screen is listed elsewhere. These columns were measured beside it and carry no call. The list favours compounds with an active or inconclusive main result. For some of these results: The note in brackets gives the kind of curve behind each potency; many fits are weak.

Assay [1] in a line: qHTS Assay for Inhibitors of PDE-IV (AID 607). The settings on record: HEK293 ACTOne CNG channel cells, membrane potential fluorescence; measured here: parental cell counter-screen. The procedure, abridged: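 Live HEK293 cells with a modified cyclic nucleotide-gated (CNG) channel report intracellular cAMP via membrane-potential dye fluorescence (ex 535/em 590 nm). Endogenous PDE-IV was targeted. Compounds were tested at up to 22.9 uM final; RO 20-1724 100 uM served as control.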
(In general: In qHTS, concentration-response curves come from the screen itself.)

A short description of assay [2]: A High-Content qHTS Against Drug Library for the Identification of Small Molecules that Inhibit DYT1 Early Onset Primary Dystonia-Associated Cell Pathology (AID 1645839). The settings on record: HEK293 Flp-In EGFP-delE TorsinA, punctate imaging, 48 h; measured here: cell count cytotoxicity. The method, boiled down: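 Flp-In T-REx 293 cells with tetracycline-inducible EGFP-delE hTOR1A (WT EGFP-hTOR1A as reference), 800 cells/well; compound added with tetracycline, 48 h at 37 C. Fixed, permeabilized cells imaged; %pathology (punctate TorsinA) primary, cell count counterscreen.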

Assay [3] can be described thus: S16 Schwann cell PMP22 intronic element beta-lactamase assay (AID 624044). The following applies: S16 rat Schwann cells, PMP22 element beta-lactamase FRET, 24 h. The procedure, abridged:
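Rat S16 Schwann cells with beta-Lac driven by a PMP22 intronic element, compound-treated 24 h at 37 °C. LiveBLAzer FRET B/G read: 460 nm normalized to potassium clavulanate vs DMSO; 535 nm FRET as viability; concentration-effect curves classified.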

Assay [4] in a line: qHTS assay for small molecule antagonists of peroxisome proliferator-activated receptor gamma signaling (AID 588537). The following applies: HEK293 PPARg-UAS-bla, beta-lactamase ratio, antagonist mode; measured here: W460 blue channel. The method, boiled down:
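PPARγ-UAS-bla HEK293 cells (3000/well) in 1% charcoal/dextran-stripped FBS are treated with compound, then stimulated with 50 nM rosiglitazone for 16 h at 37 °C. Read-out is CCF4 β-lactamase fluorescence after 2 h at RT. IC50 comes from Hill fits normalised to rosiglitazone and DMSO.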

The nature of assay [5]: qHTS assay for small molecule agonists of retinoid X receptor alpha signaling (AID 588544). The settings on record: HEK293T RXRa-UAS-bla, beta-lactamase reporter, 18 h; 530 nm emission.
Assay [6] is described as follows: qHTS assay for small molecule antagonists of retinoid X receptor alpha signaling (AID 588546).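 Also: cells stimulated with 9-cis-retinoic acid as agonist; % is scaled to controls: 0 for no effect and ±100 for the full control effect.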 The settings on record: HEK293T RXRa-UAS-bla, beta-lactamase ratio, antagonist mode; measured here: W530 green channel, cytotoxicity proxy. The procedure, abridged:
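Beta-lactamase reporter inhibition, read as CCF4 fluorescence ratio (ex 405, em 460/530 nm) after 2 h at RT. HEK293T UAS-bla cells, 2500/well, were stimulated with 9-cis-RA at 500 or 100 nM final alongside test compound for 18 h at 37 C.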

Assay [7] addresses Catechol O-methyltransferase (Homo sapiens) (UniProt P21964). Kind of assay: Confirmatory Screen for Target Class Profiling of Small Molecule Inhibitors of Methyltransferases (AID 1745852). The following applies: MTase-Glo luminescence, SAH detection, recombinant enzyme; measured here: COMT inhibition potency.
A short description of assay [8]: qHTS assay for small molecule antagonists of peroxisome proliferator-activated receptor delta signaling (AID 588535).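 Also: cells co-treated with a PPAR-delta agonist as stimulator during compound exposure.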 The settings on record: HEK293T PPARd-UAS-bla, beta-lactamase FRET ratio, 18 h; 460 nm channel. The method, boiled down: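 Antagonist-mode beta-lactamase reporter (GeneBLAzer PPAR-delta-UAS-bla) in HEK293T cells, 2% charcoal/dextran FBS, 4000 cells/well. Compound titrations, 18 h at 37 C; CCF4 ratio read, IC50 and efficacy from Hill fits.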

Setting [9] is: measured here: 460 nm blue channel.
The mark [10] stands for this setting: measured here: 530 nm viability channel.

For the molecule `CCCCc1cc2ccccc2c(OCCN(C)C)n1`, the AC50 (in general, the midpoint of the concentration-response curve, whichever way the signal moves) in assay [1] was 5.01 µM [rising, partial curve]; in assay [2] it was 35.5 µM [falling, single point].

`CCCCCCCCCCCCCCCC[N+](C)(C)CC`: the AC50 is 17.8 µM [falling, partial curve] in assay [3] (setting [9]) and 10 µM [falling, partial curve, poor fit] in assay [2].

As to `COc1cc([C@H]2Oc3cc([C@H]4Oc5cc(O)cc(O)c5C(=O)[C@@H]4O)ccc3O[C@@H]2CO)ccc1O`, the AC50 was 50.1 µM [rising, single point] in assay [4] and 6.31 µM [falling, partial curve, poor fit] in assay [2]. For the same molecule, the max response was 48.9% in assay [5] and 21.4% in assay [6].

With `O=C(/C=C/C#Cc1cccc(NS(=O)(=O)c2ccccc2)c1)NO`, the IC50 (usually the concentration that gives 50% inhibition) in assay [7] is 21.7 µM [rising, partial curve].

In the case of `CCCCN(CCCC)CC(O)c1cc(Cl)cc2c1-c1ccc(Cl)cc1/C2=C/c1ccc(Cl)cc1` (stereo unspecified), the AC50 is 5.01 µM [falling, full curve] in assay [3] (setting [9]); 2.51 µM [falling, full curve, poor fit] in assay [3] (setting [10]); 2.51 µM [falling, full curve, poor fit] in assay [2].

Regarding `Cc1cccc(Nc2ccccc2C(=O)O)c1C`, the AC50 is 3.98 µM [rising, partial curve] in assay [1]; 0.00158 µM [falling, full curve, poor fit] in assay [3] (setting [9]); 14.1 µM [falling, single point] in assay [2]. The max response in assay [8] came out at 249%; in assay [5], 65.2%; in assay [6] it was 21.1%.

As for `CC(C)(O)C1CC=C(C(=O)OCC2OC(Oc3c(O)cc(C(=O)O)cc3O)C(O)C(O)C2O)CC1` (stereo unspecified), the IC50 in assay [7] was 0.663 µM [falling, full curve].

In the case of `CCCCCCCCOc1ccc(C(=O)c2ccccc2)c(O)c1`, the AC50 is 7.07 µM [falling, full curve] in assay [3] (setting [9]); 1.41 µM [falling, full curve, poor fit] in assay [3] (setting [10]); 17.8 µM [rising, single point] in assay [2].

Turning to `CCCCCCCC/C=C\CCCCCCCC(=O)NCc1ccc(O)c(OC)c1`, the AC50 was 15.8 µM [falling, partial curve] in assay [3] (setting [9]); 12.6 µM [rising, full curve] in assay [3] (setting [10]); 7.08 µM [falling, partial curve, poor fit] in assay [2].

Regarding `C=C1C(=O)OC2C1CCC(=C)C1CC(OC(C)=O)C(=C)C12` (stereo unspecified), the IC50 in assay [7] is 19.2 µM [falling, partial curve].

For the molecule `CC(C)(c1ccc(O)cc1)c1ccc(O)cc1`, the max response is -8.89% and -28.5% in assay [8]; 23% in assay [6]. Besides, the concentration at half-maximal activity (AC50) in assay [2] was 56.2 µM [falling, single point].

Consider `O=C(O)COc1nn(Cc2ccccc2)c2ccccc12`, for which the AC50 in assay [3] (setting [10]) was 2 µM [falling, full curve]; in assay [2] it was 35.5 µM [falling, single point].

For `CCN1/C(=C/C=C/c2sc3ccccc3[n+]2CC)Sc2ccccc21`, the AC50 was 9.99 µM [falling, partial curve] in assay [3] (setting [9]); 0.355 µM [falling, partial curve] in assay [3] (setting [10]); 0.282 µM [falling, full curve, poor fit] in assay [2].

In the case of `C=C(C(=O)O)[C@H]1C[C@]2(C)C(=O)CC[C@]23O[C@H]1C[C@@H]3C`, in assay [7], the half-maximal inhibitory concentration (IC50) is 4.29 µM [falling, full curve].

With `CCCCN1CCCC1C(=O)Nc1c(C)cc(C)cc1C` (stereo unspecified), the AC50 is 1.26 µM [falling, full curve, poor fit] in assay [3] (setting [9]) and 35.5 µM [falling, partial curve, poor fit] in assay [2].

Take `COc1ccc(CCN2CCC(Nc3nc4ccccc4n3Cc3ccc(F)cc3)CC2)cc1`: the AC50 was 25.1 µM [falling, single point] in assay [3] (setting [9]) and 3.55 µM [falling, partial curve, poor fit] in assay [2].

Turning to `COCc1c(O)c(C(=O)O)c(C)c2c1OC(=O)c1c(C)cc(O)c(CO)c1O2`, in assay [7], the IC50 was 5.3 µM [falling, full curve].

Turning to `CC1OC(OC2C(OC(=O)[C@]34CCC(C)(C)C[C@H]3C3=CCC5[C@@]6(C)CC[C@H](OC7OC(C(=O)O)C(O)C(O)C7O)C(C)(C)C6CC[C@@]5(C)[C@]3(C)CC4O)OC(CO)C2O)C(O)C(O)C1OC1OCC(O)C(O)C1O` (stereo partly specified), the IC50 in assay [7] was 0.408 µM [falling, full curve].

As to `NS(=O)(=O)c1ccc(C(=O)O)cc1`, the AC50 in assay [3] (setting [9]) is 1.26 µM [falling, full curve, poor fit]; in assay [3] (setting [10]), 2 µM [falling, full curve]; in assay [2], 31.6 µM [rising, single point].

Consider `CCN(CC)C(=O)/C(C#N)=C/c1cc(O)c(O)c([N+](=O)[O-])c1`, for which the AC50 in assay [3] (setting [9]) is 22.4 µM [rising, partial curve, poor fit]; in assay [2], 10 µM [falling, partial curve, poor fit].
